Some of the results follow. Further columns of the screen follow, without active or inactive calls. Compounds called inactive in the main read-out are mostly missing here. The note in brackets gives the kind of curve behind each potency; many fits are weak.
Experiment: Cell signaling CRE-BLA (Fsk stim)
Conditions: CHO CRE-bla reporter (cAMP response element driving beta-lactamase), forskolin EC10, beta-lactamase ratio; measured here: 460 nm blue channel
How it was run: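 Modulation of forskolin-driven signalling is measured in CHO cells carrying a CRE-controlled beta-lactamase reporter. Cells are stimulated with EC10 NKH 477 in the presence of titrated compound for 3 h at 37 °C, then loaded with CCF4 for 2 h at room temperature.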

Compound	AC50
COc1cccc(OC)c1C(=O)N1CCN(c2ccccn2)CC1	0.0398 µM [falling, full curve, poor fit]
CN(C)/C=N/c1c(C(=O)NCc2ccccc2)nnn1Cc1ccccc1	0.1 µM [falling, full curve]
COc1ccc(S(=O)(=O)N2CCN(C(=O)CCC3CCCC3)CC2)cc1	1.26 µM [rising, partial curve, poor fit]
COCCn1c(=O)c(-c2ccc(Cl)cc2)nc2cnc(Oc3cccc(Cl)c3)nc21	3.16 µM [rising, full curve]
c1ccc(-c2cc(-c3nc(-c4ccccn4)no3)c3ccccc3n2)cc1	3.16 µM [rising, full curve]
CCNc1ncc2nc(-c3ccc(OC)cc3)c(=O)n(CCOC)c2n1	0.501 µM [rising, single point]
CCOc1cc(-c2noc(N)c2C(=O)OC)cc(OCC)c1OCC	15.8 µM [rising, partial curve]
CCOC(=O)C1CCCN(C(=O)c2cc(-c3ccc(C)cc3)on2)C1 (configuration not stated)	10 µM [rising, partial curve]
CC(C)C(c1nnnn1Cc1ccco1)N1CCN(c2cccc(Cl)c2)CC1 (configuration not stated)	0.126 µM [falling, partial curve, poor fit]
CCOc1ccccc1NC(=O)N1C2CCCC1CC(NC(=O)C1CC1)C2 (configuration not stated)	12.6 µM [rising, partial curve]
COc1ccc2nc3oc(C(=O)NCc4cccs4)cc3cc2c1	7.94 µM [rising, partial curve, poor fit]
CCOc1ccc(NC(=O)CSc2nc3cccnc3n2CC)cc1	15.8 µM [rising, single point]
Cc1sc(NC(=O)CSc2nc(N)n(CC(=O)c3ccccc3)n2)c(C#N)c1C	5.01 µM [rising, partial curve]
CCn1c(N2CCC(Cc3ccccc3)CC2)nc2c1c(=O)[nH]c(=O)n2C	1 µM [rising, full curve]
COc1ncc2nc(-c3cn(C)c4ccccc34)c(=O)n(C[C@H]3CCCO3)c2n1	12.6 µM [rising, partial curve, poor fit]
CCn1c(SCC(=O)c2ccc(CNC(C)=O)o2)nnc1-c1cccs1	5.01 µM [falling, partial curve]
Cc1cc(C(=O)OCC(=O)c2ccc(Br)s2)no1	5.01 µM [falling, single point]
CCCn1c(SCC(=O)N2CCc3ccccc3C2)nc2c1c(=O)n(C)c(=O)n2C	10 µM [rising, single point]
COC(=O)C(CC(C)C)NC(=O)c1cc(OC)c(OC)c(OC)c1 (configuration not stated)	12.6 µM [rising, partial curve]
Cc1nc2nc(C)c(CCC(=O)N3CCN(c4ccccn4)CC3)c(C)n2n1	0.01 µM [falling, full curve, poor fit]
Cc1ccc(S(=O)(=O)C(C#N)c2nc3ccccc3nc2N2CC(C)OC(C)C2)cc1C (configuration not stated)	10 µM [rising, partial curve]
Cc1cc(NC(=O)c2cccc(S(=O)(=O)N3CCCC3)c2)no1	3.98 µM [falling, partial curve]
O=C1CC(O)(C(F)F)Oc2ccc3ccccc3c21 (configuration not stated)	3.98 µM [falling, partial curve]

Compound	AC50
CN1CCc2cc(NC(=O)Nc3cccnc3)ccc21	15.8 µM [falling, partial curve]
CCOc1ccc(OCC)c(NC(=O)CSc2nc3c(c(=O)n(C)c(=O)n3C)n2C(C)C)c1	3.98 µM [rising, partial curve]
Cc1cccc(Cn2c(N(C)CCO)nc3c2c(=O)[nH]c(=O)n3C)c1	12.6 µM [rising, partial curve]
CNC(=O)N(C1=NCC(C)S1)c1ccc(F)cc1F (configuration not stated)	2.51 µM [rising, single point]
COc1ccc(OCc2nnc3n2N=C(c2ccc(OC)cc2)CS3)cc1	2.51 µM [rising, full curve]
Cn1cccc1C(=O)N1CCN(c2cccc(C(F)(F)F)c2)CC1	0.158 µM [falling, full curve, poor fit]
COc1ccc(-c2csc3c2[N+]2=CCC=C2C3=O)cc1	3.16 µM [rising, partial curve]
COc1cc(NC(=O)c2ccccc2)c(OC)cc1NC(=O)CN1CCOCC1	10 µM [rising, partial curve]
COc1ccc(C2=NOC(C(=O)NC(C)(C)C)C2)cc1 (configuration not stated)	12.6 µM [rising, single point]
Cc1cccc2c(=O)cc(C)n(CC(=O)N3CCCCC3)c12	3.16 µM [rising, partial curve]
CCCCSc1nnc(-c2ccc(C)cc2)o1	0.631 µM [rising, partial curve, poor fit]
O=C(NCCN1CCOCC1)c1cccc(Cl)c1	25.1 µM [rising, single point]
O=C(c1cnn2c(C(F)F)cc(-c3ccccc3)nc12)N1CCN2CCCC2C1 (configuration not stated)	25.1 µM [rising, single point]
COc1ccc(S(=O)(=O)n2nc(-c3cc(OC)c(OC)c(OC)c3)cc2N)cc1OC	10 µM [rising, partial curve]
O=S(=O)(NCc1cccs1)c1cccc2cccnc12	0.398 µM [falling, partial curve, poor fit]
COc1ccc(-c2n[nH]c(C)c2-c2ccc(Cl)cc2)c(O)c1OC	12.6 µM [falling, partial curve, poor fit]
c1ccc(-n2nnnc2-n2nnc3ccccc32)cc1	5.01 µM [falling, single point]
Cc1cccc(N2CCN(C(=O)C3CCN(S(=O)(=O)c4cccc5nsnc45)CC3)CC2C)c1 (configuration not stated)	0.00398 µM [falling, full curve, poor fit]
CC(C)(C)NC(=O)CN(Cc1cccnc1)C(=O)c1csnn1	20 µM [falling, single point]
CCCCCCC(=O)N1CCC(c2nc3c(nnn3Cc3ccccc3Cl)c(=O)[nH]2)CC1	3.16 µM [rising, partial curve]
COc1ccccc1C1SCCN1S(C)(=O)=O (configuration not stated)	6.31 µM [falling, partial curve]
Cc1nc2sc3c(c2c2nc(-c4ccco4)nn12)CCCC3	12.6 µM [rising, single point]
O=C(NCCCN1CCN(Cc2ccccc2)CC1)C1CCN(S(=O)(=O)N2CCCC2)CC1	0.00316 µM [falling, full curve, poor fit]

Compound	AC50
Cc1ccc2c(c1)cc(C)c1nnc(SCC(=O)NCc3ccco3)n12	15.8 µM [rising, single point]
Cc1ccc(C)c(N(C)C(=O)COc2cc(=O)n(C)c3ccccc23)c1	20 µM [rising, single point]
Cc1nc2cnc(N3CCOCC3)nc2n(CCc2ccccc2)c1=O	15.8 µM [rising, partial curve]
CCn1c(COc2ccccc2)nnc1SCC(=O)C(C)(C)C	15.8 µM [rising, partial curve]
O=c1c(-c2ccccc2)nc2cnc(Oc3cccc(Cl)c3)nc2n1C1CC1	10 µM [rising, single point]
Cc1cc(Nc2ccc(F)cc2C)n2ncnc2n1	25.1 µM [rising, single point]
Cn1c(=O)c(-c2ccc(Cl)cc2)nc2cnc(Nc3ccccc3)nc21	12.6 µM [rising, partial curve]
Cc1ccc(Cc2c(C)nc3nc(SCC(=O)NCc4ccco4)nn3c2C)cc1	15.8 µM [rising, partial curve]
CCOC(=O)C1CCN(C(c2ccc(OC)c(OC)c2)c2sc3nc(C)nn3c2O)CC1 (configuration not stated)	12.6 µM [rising, partial curve]
Cc1ccc2cccc(S(=O)(=O)Nc3ccc4c(c3)OCO4)c2n1	20 µM [falling, single point]
C1CCN(c2nc(N3CCCC3)nc(N3CCNCC3)n2)C1	25.1 µM [falling, single point]
CCOC(=O)N1CCC(N2C(=O)c3ccccc3C2Nc2ccc3c(C)cc(=O)oc3c2)CC1 (configuration not stated)	15.8 µM [rising, partial curve]
Cc1ccc(-c2nn(C)c(=O)c3ccccc23)cc1CO	12.6 µM [rising, partial curve]
COc1ccc2ccccc2c1C1CC(=O)N2CN(C3CCCCC3)CSC2=C1C#N (configuration not stated)	10 µM [falling, partial curve]
COc1ccc2c(c1)C(=O)N(CCc1ccc(S(=O)(=O)NC(=O)NC3CCCCC3)cc1)C(=O)C2(C)C	7.94 µM [rising, partial curve]
Cc1ccc2oc(=O)c3cc(C(=O)N4CCN(c5ncccn5)CC4)sc3c2c1	3.16 µM [rising, single point]
N#CC1=C2C=CC=CN2CC1=O	25.1 µM [rising, partial curve, poor fit]
COc1ccc2[nH]cc(CCNc3nc(-c4cccc(NS(C)(=O)=O)c4)nc4ccccc34)c2c1	10 µM [falling, single point]
Cc1cc(C)n(-c2cc(-n3nc(C)cc3C)ncn2)n1	0.316 µM [rising, full curve]
C=CCn1c(SCC(=O)NC2CCS(=O)(=O)C2)nc2scc(C3CC3)c2c1=O (configuration not stated)	25.1 µM [rising, single point]
Cc1nc2cnc(N3CCOCC3)nc2n(Cc2cccs2)c1=O	2 µM [rising, full curve]

Compounds listed so far that have a tert-butyl group, in the order listed:
Compound	AC50
COc1ccc(C2=NOC(C(=O)NC(C)(C)C)C2)cc1 (configuration not stated)	12.6 µM [rising, single point]
CC(C)(C)NC(=O)CN(Cc1cccnc1)C(=O)c1csnn1	20 µM [falling, single point]
CCn1c(COc2ccccc2)nnc1SCC(=O)C(C)(C)C	15.8 µM [rising, partial curve]

— PubChem BioAssay AID662 (National Center for Advancing Translational Sciences (NCATS), 2007)
